Results deposited as PubChem BioAssay AID504808 (Drosophila RNAi Screening Center, 2011).
The deposit covers about 21,000 reagents; below is an unselected part of those that have a named target and a result. Over the whole deposit, 18 (0.084%) were called active. 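Raw counts without plate normalisation, one of two replicates; the ratio scores behind the calls were not deposited.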 Unmarked entries are inactive. The record does not give: the amount of reagent, the time to read-out.

- Test: 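Fly genes required to hold E2F transcription in check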 (primary screen)
- Cell system: Drosophila S2 cells
- Knock-down reagent: long dsRNA against Drosophila genes
- Detection: 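Firefly luciferase driven by E2F sites, normalised to Renilla luciferase on the same minimal promoter, measured by plate reader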
- Direction: E2F firefly: higher = more E2F reporter activity; Renilla normaliser: higher = more normaliser reporter signal
- Hit rule: 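a knock-down counted as active when the firefly/Renilla E2F signal rose above 50%, a threshold chosen arbitrarily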

Gene	dsRNA	E2F firefly, rep 1	Renilla normaliser, rep 1
TwdlH	DRSC14735	1.16e5	7414
CG11357	DRSC08183	88440	3639
Mov10	DRSC07012	76519	3215
Ugt36E1	DRSC02599	87584	4094
CG17264	DRSC00500	73456	3229
CG32816	DRSC17337	83248	2488
CG43999	DRSC14605	1.18e5	6103
AnxB9	DRSC14111	59598	2871
CG12301	DRSC09875	78288	3699
CG2901	DRSC18239	91564	7253
fkh	DRSC16949	1.10e5	5889
sqz	DRSC16980	1.32e5	6679
CG11322	DRSC02142	1.42e5	4891
pcx	DRSC18186	1.06e5	5141
pcx	DRSC18187	1.05e5	4987
pcx	DRSC18188	95581	5098
pcx	DRSC18189	99138	5224
pcx	DRSC18190	1.12e5	5400
pcx	DRSC18816	1963	7977
CG33090	DRSC01908	78999	3659
bb8	DRSC15578	1.13e5	6437
ord	DRSC04706	1.09e5	4352
NimB1	DRSC01880	1.01e5	3612
mRpL45	DRSC16146	87998	6161
SdhD	DRSC14215	1.07e5	5582
CG33752	DRSC05351	1.31e5	5132
Apoltp	DRSC02508	84526	4006
CG9297	DRSC16469	81106	3745
CG3927	DRSC04433	1.07e5	4942
Smug	DRSC15762	1.16e5	6349
CG34005	DRSC05700	1.56e5	5896
Ugt36D1	DRSC02600	91259	4101
CG32037	DRSC10363	1.21e5	6930
Ir87a	DRSC14836	1.16e5	6209
CG13950	DRSC00368	1.66e5	6269
cato	DRSC07589	1.49e5	5290
cav	DRSC15995	68506	3212
CG42329	DRSC00373	1.55e5	5445
CG42329	DRSC00682	1.63e5	5622
CG12620	DRSC02177	1.03e5	4431
awd	DRSC16906	1.25e5	6283
cher	DRSC16924	69802	4234
Uvrag	DRSC02932	77330	3288
CG18528	DRSC15340	1.05e5	6335
Fer1HCH	DRSC16671	1629	992
CG31538	DRSC12059	71962	4258
Vha68-3	DRSC02809	98106	4018
Teh1	DRSC14544	1.30e5	5232
CG18518	DRSC01509	1.26e5	6427
Tace	DRSC16340	1877	952
CG13982	DRSC02314	1.43e5	5226
alpha-Est4	DRSC12616	1.37e5	6776
Eato	DRSC01891	89004	3575
Eato	DRSC03061	1.11e5	4512
CG43658	DRSC20111	2.09e5	7034
CG4069	DRSC10396	69737	3277
CG42650	DRSC12462	52250	3878

Look-ups from the entries so far:
Entry of Eato [DRSC01891] under “Renilla normaliser, rep 1”: 3575
Ir87a [DRSC14836], E2F firefly, rep 1 = 1.16e5
Result for Ugt36D1 [DRSC02600] in “E2F firefly, rep 1”: 91259
mRpL45 [DRSC16146], Renilla normaliser, rep 1: 6161
Value for CG2901 [DRSC18239] in “E2F firefly, rep 1”: 91564
CG33752 [DRSC05351], Renilla normaliser, rep 1 → 5132
